Test results published in US12358951 (dated 2025).

Assay: general procedure: Fmoc solid-phase peptide synthesis; 2-chlorotrityl chloride resin; HOBt couplings; PyAOP/DIPEA or triphosgene/2,4,6-trimethylpyridine for last buil
Details: for cyclisation yield: cyclisation step
[1] = whole synthesis, trifluoroacetate salt
[2] = late stage modification step, trifluoroacetate salt

Substance	step yield [2]	also measured
(1R,4S,7S,10S,13S,16R,19R)-10-(Aminomethyl)-7-cyclohexyl-13-[(1S)-1-hydroxyethyl]-4-isobutyl-3,16-dimethyl-18-oxa-3,6,9,12,15-pentaazabicyclo[17.8.0]heptacosane-2,5,8,11,14-pentone (trifluoroacetate salt)	–	isolated yield [1]: 62%
(2S)-2,3-Diamino-N-[[(3R,6S,9S,12S,15S,18R,19R)-9-(aminomethyl)-12-cyclohexyl-19-hexyl-15-isobutyl-3,16,18-trimethyl-5,8,11,14,17-pentaoxo-1-oxa-4,7,10,13,16-pentazacyclononadec-6-yl]methyl]propanamide (trifluoroacetate salt)	36% yield	–
(3R,6S,9S,12S,15S,18R,19R)-6-(((2-Azaspiro[3.3]heptan-6-yl)oxy)methyl)-9-(aminomethyl)-12-cycloheptyl-19-hexyl-3,16,18-trimethyl-15-propyl-1-oxa-4,7,10,13,16-pentaazacyclononadecane-5,8,11,14,17-pentaone	21%	cyclisation yield (trifluoroacetate salt): 39%
(3S,6S,9S,12S,15S)-6-(Aminomethyl)-16-(4-butylbenzyl)-9-cyclohexyl-3-(hydroxymethyl)-12-isobutyl-13,15-dimethyl-1,4,7,10,13,16-hexaazacyclooctadecane-2,5,8,11,14-pentaone	24%	–
(3S,6S,9S,12S,15S,18R)-6-(Aminomethyl)-3-((3-aminopropoxy)methyl)-15,16-dibutyl-9-cyclohexyl-12-isobutyl-13,18-dimethyl-1,4,7,10,13,16-hexaazacyclooctadecane-2,5,8,11,14-pentaone	–	isolated yield [1]: 39% yield
(3S,6S,9S,12S,15S,18R)-6-(Aminomethyl)-3-((3-aminopropoxy)methyl)-15-butyl-9-cyclohexyl-16-(cyclopropylmethyl)-12-isobutyl-13,18-dimethyl-1,4,7,10,13,16-hexaazacyclooctadecane-2,5,8,11,14-pentaone	–	cyclisation yield (trifluoroacetate salt): 30%; final purity (method not given) [2]: purity 87%
(3S,6S,9S,12S,15S,18R)-6-(Aminomethyl)-9-cyclohexyl-16-(cyclopentylmethyl)-18-ethyl-3-((S)-1-hydroxyethyl)-12-isobutyl-13,15-dimethyl-1,4,7,10,13,16-hexaazacyclooctadecane-2,5,8,11,14-pentaone (trifluoroacetate salt)	48%	crude yield [1]: 51% crude yield
(3S,6S,9S,12S,15S,18R)-6-(Aminomethyl)-9-cyclohexyl-18-(2-fluoroethyl)-16-hexyl-3-((S)-1-hydroxyethyl)-12-isobutyl-13,15-dimethyl-1,4,7,10,13,16-hexaazacyclooctadecane-2,5,8,11,14-pentaone	37%	final purity (method not given) [2]: purity 87%
(3S,6S,9S,12S,15S,18S)-6-(Aminomethyl)-16-butyl-9-cyclohexyl-3-((S)-1-hydroxyethyl)-18-(hydroxymethyl)-12-isobutyl-13,15-dimethyl-1,4,7,10,13,16-hexaazacyclooctadecane-2,5,8,11,14-pentaone	–	purity (crude or final not stated) (late stage modification step, LCMS method B, TFA salt): 82%
Benzyl N-[[(3R,6S,9 S,12S,15S,18R,19R)-6-(aminomethyl)-12-cyclohexyl-19-hexyl-15-isobutyl-3,16,18-trimethyl-5,8,11,14,17-pentaoxo-1-oxa-4,7,10,13,16-pentazacyclononadec-9-yl]methyl]carbamate	100% yield	–
Benzyl-N-[[(3R,6S,9S,12S,15S,18R,19R)-6-(2-amino-2-oxo-ethyl)-12-cycloheptyl-19-hexyl-3,16,18-trimethyl-5,8,11,14,17-pentaoxo-15-prop yl-1-oxa-4,7,10,13,16-pentazacyclononadec-9-yl]methyl]carbamate	66.4%	–
N-[[(3R,6S,9S,12S,15S,18R,19R)-9-(Aminomethyl)-12-cyclohexyl-19-hexyl-15-isobutyl-3,16,18-trimethyl-5,8,11,14,17-pentaoxo-1-oxa-4,7,10,13,16-pentazacyclononadec-6-yl]methyl]methanesulfonamide (trifluoroacetate salt)	41% yield	–
tert-Butyl (NZ)—N-[[[3-[[(3R,6S,9S,12S,15S,18R,19R)-9-(aminomethyl)-12-cycloheptyl-3,16,18-trimethyl-5,8,11,14,17-pentaoxo-15-propyl-19-(spiro[3.3]heptan-2-ylmethyl)-1-oxa-4,7,10,13,16-pentazacyclononadec-6-yl]methoxy]cyclobutyl]amino]-(tert-butoxycarbonylamino)methylene]carbamate	88.8% yield	–
tert-Butyl N-[3-[3-[[(3R,6S,9S,12S,15S,18R,19R)-9-(benzyloxycarbonylaminomethyl)-19-[[(1S,5R)-3-bicyclo[3.2.1]octanyl]methyl]-12-cycloheptyl-3,16,18-trimethyl-5,8,11,14,17-pentaoxo-15-propyl-1-oxa-4,7,10,13,16-pentazacyclononadec-6-yl]methoxy]propylamino]propyl]carbamate	42.9%	–
tert-Butyl N-[3-[[(3R,6S,9S,12S,15S,18R,19R)-9-[(tert-butoxycarbonylamino)methyl]-12-cycloheptyl-19-hexyl-3,16,18-trimethyl-5,8,11,14,17-pentaoxo-15-propyl-1-oxa-4,7,10,13,16-pentazacyclononadec-6-yl]methylamino]propyl]carbamate	46.3%	–
tert-Butyl N-[(1S)-2-[[(3R,6S,9S,12S,15S,18R,19R)-9-(benzyloxycarbonylaminomethyl)-12-cyclohexyl-19-hexyl-15-isobutyl-3,16,18-trimethyl-5,8,11,14,17-pentaoxo-1-oxa-4,7,10,13,16-pentazacyclononadec-6-yl]methylamino]-1-[(tert-butoxycarbonylamino)methyl]-2-oxo-ethyl]carbamate	–	step yield (coupling step, trifluoroacetate salt): 100% yield
tert-Butyl N-[[6-[[(3R,6S,9S,12S,15S,18R,19R)-9-[(tert-butoxycarbonylamino)methyl]-12-cycloheptyl-19-hexyl-3,16,18-trimethyl-5,8,11,14,17-pentaoxo-15-propyl-1-oxa-4,7,10,13,16-pentazacyclononadec-6-yl]methylamino]pyrimidin-4-yl]methyl]carbamate	83% yield	–
tert-Butyl N-[[(3R,6S,9S,12S,15S,18R,19R)-9-(benzyloxycarbonylaminomethyl)-12-cyclohexyl-19-hexyl-15-isobutyl-3,16,18-trimethyl-5,8,11,14,17-pentaoxo-1-oxa-4,7,10,13,16-pentazacyclononadec-6-yl]methyl]carbamate	–	cyclisation yield (on linear precursor, trifluoroacetate salt): 55% yield
